Several values for one entry are separate records, joined by “and”; a condition that tells them apart may be missing. Equal entries are not always repeated. The whole screen tested about 320,000 compounds, of which about 740 (0.23%) were called active. The shares of active, inactive and inconclusive entries below differ from those in the screen. Calls come from the whole dose curve; as a rule, active = well fitted activation curve with a large enough effect; inconclusive = small, poorly fitted or top-dose-only effect; inactive = no such curve, though single readings can be large or run the other way. Potencies of inconclusive entries are doubtful fits and often do not repeat.
Assay: qHTS Assay for Small Molecule Inhibitors of Mitochondrial Division or Activators of Mitochondrial Fusion; note: nearly all actives have a fitted effect of over 45% in size;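 for growth rescue (activation): temperature-sensitive fusion mutants such as fzo1-1 at 37 °C on non-fermentable ethanol glycerol medium; % of control where 0% means no effect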
Conditions: S. cerevisiae fusion-defective mutant growth rescue, CellTiterGlo 48 h; growth rescue (activation): at 46.1 µM (top of the series) unless noted
How it was run: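 Yeast fusion mutant, YPEG (non-fermentable carbon), compound, 48 h at 37C non-permissive; CellTiterGlo added, 10 min RT, luminescence read. Rescued growth = division inhibition.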
Potency is the fitted concentration of half-maximal effect.

| SMILES | Potency | growth rescue (activation) |
| --- | --- | --- |
| Cc1ccc(C)c(S(=O)(=O)N2CCN(c3nc(-c4cccnc4)nc4ccccc34)CC2)c1 | inconclusive: 12.6 µM [activator, single point] | – |
| CCCCC(=O)Nc1cccc(-c2csc(-c3ccccc3)n2)c1 | inconclusive: 31.6 µM [activator, single point] | – |
| Cc1ccccc1-n1c(C)nnc1SCC(=O)NC1CCCc2ccccc21 (configuration not stated) | – | inactive: -0.625% |
| Cc1cc(N2CCC(C)CC2)nc(SCC(=O)c2ccccc2)n1 | inconclusive: 31.6 µM [activator, single point] | – |
| O=C(COc1ccc2c(c1)CCC2)NCc1cccc(Cl)c1 | – | inactive: -0.552% |
| Cn1c(=O)c(/C=C/c2ccccc2)nc2ccccc21 | – | inactive: 13.2% |
| CCCc1[nH][nH]c(=O)c1C(c1ccc(Cl)cc1)C(C#N)C#N (configuration not stated) | – | inactive: 3.23% |
| COc1ccc2c(c1)C(=O)N(c1ccc(C)cc1C)C(=O)C2 | inconclusive: 22.4 µM [activator, single point] | – |
| O=C(Cn1cncn1)N/N=C/c1ccccc1O | – | inactive: 0.326% |
| COCCNC(=O)CSc1nc(-c2ccccc2)c(-c2ccccc2)o1 | inconclusive: 15.8 µM [activator, partial curve] | – |
| Cc1ccc(S(=O)(=O)n2cc(-c3ccccc3)c3ccccc32)cc1 | inconclusive: 10 µM [activator, single point] | – |
| COc1ccc(OCC(O)CN2CCN(c3ccccc3)CC2)cc1 (configuration not stated) | – | inactive: 0.669% |
| CC(=O)c1cccc(Nc2nc3ccccc3n3cnnc23)c1 | inconclusive: 3.16 µM [activator, partial curve, poor fit] | – |
| CCNc1nc(NCC)nc(N/N=C(\C)c2ccc(OC)cc2)n1 | – | inactive: 1.87% |
| CCc1ccc(/C=C2/SC(=S)NC2=O)cc1 | inconclusive: 29.1 µM [activator, single point] | – |
| Nc1nc2c(Cl)cc(Cl)cc2s1 | inconclusive: 20 µM [activator, single point] | – |
| CCOc1ccc2nc(N3CCCN(C(=O)Nc4ccccc4C)CC3)c(C#N)cc2c1 | inconclusive: 22.4 µM [activator, single point] | – |
| O=C(CSc1nc2ccccc2o1)N1c2ccccc2Sc2ccccc21 | active: 12.6 µM | – |
| CCc1cc(C(=O)Cc2cnn(-c3ccccc3)c2)c(O)cc1O | – | inactive: 3.81% |

| SMILES | Potency | growth rescue (activation) |
| --- | --- | --- |
| CCCSc1cc(NCCOC(=O)CCC)c([N+](=O)[O-])c2nonc12 | inconclusive: 10 µM [activator, partial curve] | – |
| CC1CN(CCCSc2ccc(Cl)cc2)CC(C)O1 (configuration not stated) | inconclusive: 12.6 µM [activator, partial curve] | – |
| COc1ccc2[nH]c(=O)c(CN(CCO)C(=O)NCc3ccccc3)cc2c1 | – | inactive: 1.29% |
| COc1ccc(F)cc1C1=CC(=O)C[C@H](c2ccc3c(c2)OCO3)C1 | – | inactive: 24.4% |
| COc1ccccc1C(=O)Nc1ccc2c(c1)nc(CCNC(C)=O)n2C | – | inactive: -1.92% |
| COc1ccc(CNc2nc3c(c(=O)n(Cc4ccc(F)cc4)c(=O)n3C)n2C)cc1 | inconclusive: 35.5 µM [activator, single point] | – |
| Fc1cccc(CNc2ncnc3ccc(-c4ccc5c(c4)OCO5)cc23)c1 | inconclusive: 25.1 µM [activator, single point] and inconclusive: 12.6 µM [activator, single point] | – |
| Cc1ccc(C(C)C)cc1OCCn1cncn1 | – | inactive: -2.73% |
| O=C(/C=C/c1ccccc1Cl)NCc1cccs1 | inconclusive: 5.01 µM [activator, single point] | – |
| CCOC(=O)c1nc(Nc2cc(Cl)ccc2OC)c2ccccc2n1 | inconclusive: 35.5 µM [activator, single point] | – |
| CCOC(=O)c1cc(C#N)c(N2CCCC2)nc1-c1ccccc1 | – | inactive: 8.02% |
| O=C(Nc1ccccc1N1CCN(C(=O)c2ccc(Cl)cc2)CC1)c1ccc2c(c1)OCO2 | active: 12.6 µM | – |
| CCn1cc(Br)c(C(=O)NC(C)c2ccccc2)n1 (configuration not stated) | – | inactive: -0.549% |
| Cc1nc2sccn2c(=O)c1CCN1CCC(=C(c2ccc(F)cc2)c2ccc(F)cc2)CC1 | inconclusive: 35.5 µM [activator, single point] and inconclusive: 4.11 µM [activator, single point] | – |
| COCc1c(Br)c(C)[nH]c(=O)c1C#N | – | inactive: -7.47% |
| COc1cccc(/C=C/C(=O)c2cccc([N+](=O)[O-])c2)c1 | – | inactive: -2.62% |
| CCOc1ccccc1N(C)S(=O)(=O)c1ccc2c(c1)CC(C)N2C(=O)C1CC1 (configuration not stated) | inconclusive: 8.91 µM [activator, partial curve] | – |
| O=C(Cc1ccccc1F)Nc1nc(-c2cccs2)cs1 | inconclusive: 22.4 µM [activator, single point] | – |

Given comma-delimited: part of the list above.
SMILES,Potency,growth rescue (activation)
COc1ccc(F)cc1C1=CC(=O)C[C@H](c2ccc3c(c2)OCO3)C1,–,inactive: 24.4%
COc1ccccc1C(=O)Nc1ccc2c(c1)nc(CCNC(C)=O)n2C,–,inactive: -1.92%
COc1ccc(CNc2nc3c(c(=O)n(Cc4ccc(F)cc4)c(=O)n3C)n2C)cc1,"inconclusive: 35.5 µM [activator, single point]",–

From PubChem BioAssay AID485298 (National Center for Advancing Translational Sciences (NCATS), 2010)
